In PMC12098889, “Structural insight into PIF6-mediated red light signal transduction of plant phytochrome B” (Cell Discovery, 2025):
For at least one entry, the source does not settle the construct or the ends of the probe. Weaker means in comparison with the reference protein, sequence or condition of that experiment. Tags and fusion partners may be left off the protein sequences shown. At least one verdict was read from the data and is not stated in words by the source.

Molecular target: T1, PIF6αΔC (PIF6ΔC) (Arabidopsis) (UniProt Q8L5W7)
T1 sequence (looked up): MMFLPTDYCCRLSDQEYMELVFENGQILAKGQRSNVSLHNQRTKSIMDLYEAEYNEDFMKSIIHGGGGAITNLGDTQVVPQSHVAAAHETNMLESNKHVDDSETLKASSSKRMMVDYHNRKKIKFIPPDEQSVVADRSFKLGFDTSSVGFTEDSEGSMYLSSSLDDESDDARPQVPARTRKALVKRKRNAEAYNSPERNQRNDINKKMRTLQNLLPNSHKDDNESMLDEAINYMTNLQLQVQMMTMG
Assay: EMSA
Conditions: EMSA: 20 mM HEPES pH 7.8, 75 mM KCl, 5 mM MgCl2, 5 mM DTT, 0.5 mg/mL BSA, 10% glycerol, 200 ng/mL heparin, on ice 60-90 min, 15 nM probe, 6% native gel, recombinant protein, residues 1-247, label: 5' FAM

[1] = phyB Y276H,Q109A 0.75-6.0 uM, little influence

## AAAAATTAGTGGCTACCAAGTGGGAGATATAATTTGGA (double strand) [FT-E Box3]
No phyB, 0.375-3.0 uM protein
  binding result: binds
[1]
  binding result: binds

## AAGAAGAGAAATAAAACAATTGATTTGGTTTATATTAT (double strand) [FT-E Box1]
No phyB, 0.375-3.0 uM protein
  binding result: binds
[1]
  binding result: binds

## AATAGGTGACTATTCTCAAATGTCCTGGTTCTATCTAA (double strand) [FT-E Box2]
No phyB, 0.375-3.0 uM protein
  binding result: binds
[1]
  binding result: binds

## ATCAACACAGAGAAACCACCTGTTTGTTCAAGATCAAA (double strand) [FT-E Box4]
No phyB, 0.375-3.0 uM protein
  binding result: binds
[1]
  binding result: binds

## GGCCGAGGTGAGTAGGACACGTGGACACGTCTTCCGAA (double strand) [G-wt]
No phyB, 0.375-3.0 uM protein
  binding result: binds
phyB (1-1172) in the dark (Pr), 0.75-6.0 uM, little effect
  binding result: binds
phyB (1-1172) under red light (Pfr), 0.75-6.0 uM, part of probe retained in well
  binding result: binds more weakly
[1]
  binding result: binds
